Columns and labels:
[1] = biological target: T1, Dual specificity tyrosine-phosphorylation-regulated kinase 1B (Homo sapiens, UniProt Q9Y463); test: Inhibition of recombinant Dyrk1B (unknown origin) using FITC-Asp-His-Thr-Gly-Phe-Leu-Thr-Glu-Tyr-Val-Ala-Thr-Arg-NH2 as substrate after 60 mins
[2] = biological target: T1, Dual specificity tyrosine-phosphorylation-regulated kinase 1B; test: Inhibition of human full length C-terminal c-Myc tagged Dyrk1B phosphorylation overexpressed in monkey COS1 cells after 5 hrs by ELISA; format: cell-based, COS-1
Outline: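 Cos-1 cells transiently overexpressing cMyc-tagged Dyrk; phospho-Dyrk pS421 inhibition measured after 5 h compound treatment. IC50 in micromolar, mean of at least n = 2 independent measurements.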

Amino acid sequences for entries named in this document (tags omitted).
UniProt Q9Y463, whole entry: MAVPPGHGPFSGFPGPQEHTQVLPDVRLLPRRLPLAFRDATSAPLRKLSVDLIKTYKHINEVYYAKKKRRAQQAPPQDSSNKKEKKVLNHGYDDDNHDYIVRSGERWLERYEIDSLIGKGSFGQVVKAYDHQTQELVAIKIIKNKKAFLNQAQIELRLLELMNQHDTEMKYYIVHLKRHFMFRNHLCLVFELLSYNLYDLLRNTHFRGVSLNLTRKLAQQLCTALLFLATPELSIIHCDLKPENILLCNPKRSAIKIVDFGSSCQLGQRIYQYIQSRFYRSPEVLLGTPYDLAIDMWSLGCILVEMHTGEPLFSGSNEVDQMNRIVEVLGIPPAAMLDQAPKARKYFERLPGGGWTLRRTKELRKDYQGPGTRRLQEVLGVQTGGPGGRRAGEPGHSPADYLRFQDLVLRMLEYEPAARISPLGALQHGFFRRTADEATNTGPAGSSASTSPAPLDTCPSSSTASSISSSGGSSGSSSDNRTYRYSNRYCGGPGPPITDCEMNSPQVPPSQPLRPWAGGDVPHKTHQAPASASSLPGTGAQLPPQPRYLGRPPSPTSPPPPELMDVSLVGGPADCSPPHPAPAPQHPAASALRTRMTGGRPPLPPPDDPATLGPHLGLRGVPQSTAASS

Compound: COc1cc(N2CCN(C)CC2)ccc1Nc1nccc(-c2cn(C)c3cnccc23)n1
- IC50 [1]: 3 nM
- IC50 [2]: 42 nM
